Reference: article PMC8060413
Results are given in words; binding and its absence hold for the method and conditions named. Binding seen in cells or lysates may run through a third protein. A result given as binding can be weak or reduced; the word gives no strength.

The chains behind the UniProt entries cited, without tags or fusion partners. Where a name states a change or a piece, a line headed by the entry shows the natural chain unless it says otherwise.
UniProt P32527: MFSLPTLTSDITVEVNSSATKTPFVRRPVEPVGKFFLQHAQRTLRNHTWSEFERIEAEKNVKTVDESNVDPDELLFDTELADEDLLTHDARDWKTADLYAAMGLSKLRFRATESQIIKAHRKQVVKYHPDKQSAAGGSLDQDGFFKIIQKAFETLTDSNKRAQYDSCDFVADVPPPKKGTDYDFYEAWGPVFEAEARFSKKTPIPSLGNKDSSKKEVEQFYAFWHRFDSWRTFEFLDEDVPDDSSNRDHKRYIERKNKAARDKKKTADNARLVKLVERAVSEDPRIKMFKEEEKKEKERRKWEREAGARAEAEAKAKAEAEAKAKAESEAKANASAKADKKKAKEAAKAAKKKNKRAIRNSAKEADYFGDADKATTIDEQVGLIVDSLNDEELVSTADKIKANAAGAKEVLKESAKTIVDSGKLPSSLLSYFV

Molecular target: T1, Ssz1 C81S C86S (subunit of the cysteine RAC variants) (yeast) (UniProt P38788)
T1 sequence: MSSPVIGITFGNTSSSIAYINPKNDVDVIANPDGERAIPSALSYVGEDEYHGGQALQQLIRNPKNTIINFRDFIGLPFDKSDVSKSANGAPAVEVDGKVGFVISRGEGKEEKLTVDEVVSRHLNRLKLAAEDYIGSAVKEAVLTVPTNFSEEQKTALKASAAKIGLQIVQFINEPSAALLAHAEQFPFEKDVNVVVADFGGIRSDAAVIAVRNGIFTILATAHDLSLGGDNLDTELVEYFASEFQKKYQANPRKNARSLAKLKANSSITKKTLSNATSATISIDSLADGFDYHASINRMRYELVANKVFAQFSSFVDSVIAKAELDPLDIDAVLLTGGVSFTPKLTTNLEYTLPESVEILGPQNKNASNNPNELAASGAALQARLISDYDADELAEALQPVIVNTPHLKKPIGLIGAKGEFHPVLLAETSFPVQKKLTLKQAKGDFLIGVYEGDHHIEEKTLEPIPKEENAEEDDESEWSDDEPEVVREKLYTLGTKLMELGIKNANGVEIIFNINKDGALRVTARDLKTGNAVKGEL
Assay: co-purification (Ni-IDA affinity, anion exchange, size exclusion); Ssz1 and Zuo1 co-expressed in E. coli; complex held on Ni-IDA by His6-SUMO on Ssz1, washed with 100 mM and 1 M KAc, eluted with 300 mM imidazole; His6-SUMO removed by Ulp1; then ResourceQ and HiLoad Superdex 200 in 40 mM HEPES pH 7.4, 100 mM KAc, 5 mM MgCl2, 5% glycerol

binding, binds:
Zuo1 C167S K355P R395P K363C (from UniProt P32527), Zuo1 C167S K351C K355P R395P (from UniProt P32527), Zuo1 C167S K351C K355P R395P K363C (from UniProt P32527)
